Structures can show the parent of a compound that is named as a salt. At least one structure is not confirmed: it was looked up by name or label, or the drawing left a doubt. Some results were stated once for a whole list of compounds, not compound by compound.
Assays:
[1] = system: human cancer cell line; test: Cisplatin growth inhibition of a human cancer cell line in presence of protective drug; assay type: cell-based
[2] = system: hair cells of the zebrafish lateral line; test: Dose response testing: protection of zebrafish lateral line hair cells against toxin-induced hair cell death (DASPEI neuromast scoring); assay type: in vivo, zebrafish (Danio rerio); settings: for Cisplatin dose range over which drug is protective: highest tested dose
Procedure: Animal care. Wildtype Larval zebrafish (Danio rerio) were produced via group matings of adult fish. […] Beginning at 4 days post-fertilization (dpf), fish were fed live paramecia or rotifers daily. Experiments were performed using 5 or 6 dpf larvae. The University of Washington Animal Care and Use Committee approved of the animal procedures described here.
Dose response testing. Drug screen “hits” were tested to determine minimum concentrations of drug and maximum concentrations of toxin that confer protection against hair cell death. All “hits” were tested against all four hair cell toxins regardless of whether a given “hit” was positive with a specific toxin in the screen. 5 or 6 dpf larvae were transferred to 6-well Corning Netwell baskets and placed in 6-well plates (Fisher Scientific) in EM with approximately 10 fish per basket. This allowed for easy transfer between treatment media. Drug and toxins were made up in 7 ml of EM. Larvae were pretreated for one hour in a dose of protective drug followed by cotreatment in protective drug and hair cell toxin. […] Then larvae were rinsed 4× and anesthetized with MS222. Larvae were transferred to glass depression slides and viewed on a Leica epifluorescent microscope with a DASPEI filter (Chroma Technologies, Brattleboro Vt.). […] To find minimum protective concentrations, doses of protective drug tested were 0, 0.5, 1, 5, 10, 50, 100 uM and toxin dose was held at the concentrations used for screening (see above). For those doses of putative protectants that killed the larvae, further doses were tested to determine if intermediate doses were optimal. For dose response curves finding maximum toxin dose at which protection occurs, dose of protective drug was held at previously determined optimal dose and toxin dose was varied as follows: […]

Structure (SMILES)	Effect on ability of cisplatin to inhibit growth of a human cancer cell line [1]	Cisplatin dose range over which drug is protective [2]	Protection of sensory hair cells against cisplatin ([2]; zebrafish, in vivo)	Protection of sensory hair cells against gentamicin ([2]; zebrafish, in vivo)	Protection of sensory hair cells against kanamycin ([2]; zebrafish, in vivo)
NC(=NCc1ccccc1)NC(=O)c1nc(Cl)c(N)nc1N [Benzamil]	not altering	up to 100 μM	protective against cisplatin	protect against gentamicin	protect against kanamycin
Fc1ccc([C@@H]2CCNC[C@H]2COc2ccc3c(c2)OCO3)cc1 [Paroxetine HCl]		up to 100 μM			
